Laboratory results published in the supplement of paper PMC4604168 (melanoma cell lines).
Some of the results follow. Single values are uncertain, as repeats are few or missing.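 Cells were imaged in 1,536-well plates, and nuclei stained with an antibody against cleaved PARP were counted against all DNA-stained nuclei to give the apoptosis fraction. Screening doses were chosen to leave most cells alive, and resting and induced cleaved-PARP levels differ strongly between cell lines.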

How the values were obtained:
Assay in all cases: cleaved PARP positive nuclei fraction relative to DMSO control; melanoma cells; higher = more apoptosis
Conditions in all cases: library dose: low library concentration; 72 h
[1] = tested on: MZ2-MEL
[2] = tested on: MeWo
[3] = tested on: RPMI7951
[4] = tested on: RVH-421
[5] = tested on: SkMel28
[6] = tested on: SkMel2
[7] = tested on: SkMel30
[8] = tested on: SkMel5
[9] = tested on: UACC257
[10] = tested on: UACC62
[11] = tested on: WM115
[12] = tested on: WM1716
[13] = tested on: WM1745
[14] = tested on: WM3526
[15] = tested on: WM3619
[16] = tested on: WM451Lu

| Structure (SMILES) | cleaved PARP positive nuclei fraction [1] [%] | cleaved PARP positive nuclei fraction [2] [%] | cleaved PARP positive nuclei fraction [3] [%] | cleaved PARP positive nuclei fraction [4] [%] | cleaved PARP positive nuclei fraction [5] [%] | cleaved PARP positive nuclei fraction [6] [%] | cleaved PARP positive nuclei fraction [7] [%] | cleaved PARP positive nuclei fraction [8] [%] | cleaved PARP positive nuclei fraction [9] [%] | cleaved PARP positive nuclei fraction [10] [%] | cleaved PARP positive nuclei fraction [11] [%] | cleaved PARP positive nuclei fraction [12] [%] | cleaved PARP positive nuclei fraction [13] [%] | cleaved PARP positive nuclei fraction [14] [%] | cleaved PARP positive nuclei fraction [15] [%] | cleaved PARP positive nuclei fraction [16] [%] |
| --- | --- | --- | --- | --- | --- | --- | --- | --- | --- | --- | --- | --- | --- | --- | --- | --- |
| CS(=O)(=O)CCNCc1ccc(-c2ccc3ncnc(Nc4ccc(OCc5cccc(F)c5)c(Cl)c4)c3c2)o1 [lapatinib] + CN(C)S(=O)(=O)c1ccc2c(c1)/C(=C/c1cc3c([nH]1)CCCC3)C(=O)N2 [SU6656] (first compound 0.8 µM, partner dose 0.4 µM) | 188 | 113 | 118 | 1720 | 69.3 | 92.4 | 42 | 73.7 | 55.5 | 140 | 133 | 92.6 | 92.1 | 55.6 | 86.3 | 103 |
| C[C@@H](Oc1cc(-c2cnn(C3CCNCC3)c2)cnc1N)c1c(Cl)ccc(F)c1Cl [Crizotinib] + O=C(O)C(=O)Nc1sc2c(c1C(=O)O)CCNC2 [TCS401] (first compound 0.2 µM, partner dose 1.66667 µM) | 217 | 63 | 101 | 85.8 | 172 | 155 | 30.7 | 83.7 | 42.8 | 102 | 110 | 62.4 | 101 | 85.7 | 78 | 33.3 |
| Cc1cc(Nc2cc(N3CCN(C)CC3)nc(/C=C/c3ccccc3)n2)n[nH]1 + O=C(Nc1ccccc1)c1cc([N+](=O)[O-])ccc1Cl [GW9662] (first compound 0.04 µM, partner dose 2 µM) | 133 | 93.3 | 114 | 93.9 | 105 | 103 | 28.6 | 153 | 386 | 107 | 113 | 249 | 86.5 | 39.8 | 96 | 39.8 |
| CCCS(=O)(=O)Nc1ccc(F)c(C(=O)c2c[nH]c3ncc(Cl)cc23)c1F + COc1ccc2c(c1)CCC1C2CCC2(C)C(NCCCCCCN3C(=O)C=CC3=O)CCC12 [U73122] (first compound 0.08 µM, partner dose 0.4 µM) | 95.1 | 56.3 | 34.7 | 104 | 164 | 133 | 135 | 68.6 | 147 | 292 | 110 | 63 | 67.5 | 70.8 | 93.7 | 73.6 |
| CCCS(=O)(=O)Nc1ccc(F)c(C(=O)c2c[nH]c3ncc(Cl)cc23)c1F + CCc1ccc(CCOc2ccc(CC3SC(=O)NC3=O)cc2)nc1 [pioglitazone] (first compound 0.08 µM, partner dose 2 µM) | 70.2 | 98.9 | 176 | 126 | 80.1 | 89.7 | 42.2 | 63 | 149 | 156 | 120 | 80.1 | 92.1 | 123 | 153 | 33.6 |
| Cc1cc(Nc2cc(N3CCN(C)CC3)nc(/C=C/c3ccccc3)n2)n[nH]1 + CN(C)S(=O)(=O)c1ccc2c(c1)/C(=C/c1cc3c([nH]1)CCCC3)C(=O)N2 [SU6656] (first compound 0.04 µM, partner dose 0.4 µM) | 129 | 231 | 92.8 | 95.8 | 34.4 | 28.1 | 71.1 | 150 | 99.7 | 69.7 | 447 | 33.7 | 101 | 98.8 | 118 | 42 |
| CN1CCN(c2ccc3nc(-c4c(N)c5c(F)cccc5[nH]c4=O)[nH]c3c2)CC1 [Dovitinib] + O=C(O)c1ccc(-c2c[nH]c3ncc(-c4ccccc4)cc23)cc1C1CCCC1 [GSK650394] (first compound 0.1 µM, partner dose 0.16 µM) | 115 | 137 | 31.4 | 13.3 | 60.5 | 53.4 | 195 | 39.2 | 95.3 | 110 | 129 | 107 | 128 | 72.8 | 96 | 47.6 |
| C=C(c1ccc(C(=O)O)cc1)c1cc2c(cc1C)C(C)(C)CCC2(C)C [Bexarotene] + CCCCCCCCCCCC1=C(O)C(=O)C=C(O)C1=O [Embelin] (first compound 2 µM, partner dose 1.2 µM) | 79.9 | 83.8 | 32.4 | 70.7 | 272 | 97.9 | 141 | 169 | 178 | 74.1 | 47.7 | 216 | 96.1 | 87.1 | 86.1 | 204 |
| O=C(O)c1ccc2c(c1)nc(Nc1cccc(Cl)c1)c1ccncc12 + O=C(O)c1ccc(-c2c[nH]c3ncc(-c4ccccc4)cc23)cc1C1CCCC1 [GSK650394] (first compound 0.4 µM, partner dose 0.16 µM) | 76.4 | 70.2 | 200 | 71 | 30.5 | 111 | 131 | 83 | 110 | 30.3 | 53.7 | 242 | 104 | 130 | 80 | 40.6 |
| Nc1ncn([C@H]2C[C@H](O)[C@@H](CO)O2)c(=O)n1 [decitabine] + NC(=O)Nc1cc(-c2cccc(F)c2)sc1C(=O)N[C@H]1CCCNC1 [AZD7762] (first compound 0.1 µM, partner dose 0.02 µM) | 41.8 | 139 | 78.7 | 28.3 | 59.6 | 48.5 | 132 | 60.5 | 97.4 | 32.6 | 308 | 121 | 101 | 63.5 | 157 | 201 |
| Nc1nc(F)nc2c1ncn2[C@@H]1O[C@H](CO)[C@@H](O)[C@@H]1O [fludarabine] + O=C(Nc1cccc(Cl)c1)Nc1ncc(CCNc2ncnc3ccsc23)s1 [SNS314] (first compound 0.2 µM, partner dose 0.0008 µM) | 80.1 | 332 | 345 | 394 | 117 | 460 | 392 | 484 | 227 | 174 | 46.5 | 131 | 107 | 89.3 | 66.4 | 85.5 |
| O=C(O)[C@@H]1[O][Sb](=[O])([O][Sb]2(=[O])[O][C@H]([C@H](O)CO)[C@H](O)[C@H](C(=O)O)[O]2)[O][C@H]([C@H](O)CO)[C@@H]1O (stereo partly drawn) [stibogluconate] + CC(C)CCN1c2nc(Nc3cc(F)c(O)c(F)c3)ncc2N(C)C(=O)C1C [BID1870] (first compound 2 µM, partner dose 0.2 µM) | 98.8 | 190 | 133 | 68.8 | 34.2 | 75.7 | 65.4 | 70.5 | 19.4 | 108 | 107 | 62 | 77.5 | 64 | 88.7 | 75.4 |
| CNC(=O)c1cc(Oc2ccc(NC(=O)Nc3ccc(Cl)c(C(F)(F)F)c3)cc2)ccn1 [sorafenib] + CN(NC(=O)CC(=O)NN(C)C(=S)c1ccccc1)C(=S)c1ccccc1 [STA4783] (first compound 0.4 µM, partner dose 0.006 µM) | 292 | 169 | 51.3 | 51.3 | 130 | 70 | 59.2 | 296 | 123 | 61.6 | 79.7 | 240 | 429 | 129 | 213 | 136 |
| Nc1ccn([C@@H]2O[C@H](CO)[C@@H](O)C2(F)F)c(=O)n1 [gemcitabine] + O=c1cc(-c2cccc3c2Sc2ccccc2S3)oc(N2CCOCC2)c1 [KU55933] (first compound 0.0004 µM, partner dose 1 µM) | 179 | 135 | 35.5 | 132 | 81.6 | 159 | 168 | 202 | 101 | 51.6 | 39.5 | 30.1 | 221 | 134 | 130 | 36 |
| Nc1nc(F)nc2c1ncn2[C@@H]1O[C@H](CO)[C@@H](O)[C@@H]1O [fludarabine] + CCc1ccc(CCOc2ccc(CC3SC(=O)NC3=O)cc2)nc1 [pioglitazone] (first compound 0.2 µM, partner dose 2 µM) | 20.5 | 334 | 94.4 | 160 | 86.2 | 190 | 474 | 116 | 63.4 | 106 | 274 | 58.1 | 89.8 | 456 | 89.2 | 204 |
| CCCS(=O)(=O)Nc1ccc(F)c(C(=O)c2c[nH]c3ncc(Cl)cc23)c1F + COc1ccc(COc2ccc(Cc3cnc(N)nc3N)cc2OC)cc1 [GW2580] (first compound 0.08 µM, partner dose 1 µM) | 109 | 66.1 | 86 | 161 | 135 | 76.2 | 169 | 69 | 48.8 | 108 | 113 | 47.5 | 98.7 | 67 | 107 | 77.3 |
| CN1CCN(c2ccc3nc(-c4c(N)c5c(F)cccc5[nH]c4=O)[nH]c3c2)CC1 [Dovitinib] + Oc1cc(-c2nc(-c3ccccc3)[nH]c2-c2ccncc2)ccc1Cl [L779450] (first compound 0.1 µM, partner dose 0.2 µM) | 131 | 31.6 | 42.4 | 205 | 181 | 125 | 179 | 84.5 | 319 | 406 | 127 | 48 | 100 | 89.4 | 99 | 92.4 |
| O=C(O)c1ccc2c(c1)nc(Nc1cccc(Cl)c1)c1ccncc12 + Cn1cncc1[C@@](N)(c1ccc(Cl)cc1)c1ccc2c(c1)c(-c1cccc(Cl)c1)cc(=O)n2C [tipifarnib] (first compound 0.4 µM, partner dose 0.01 µM) | 139 | 217 | 138 | 48 | 31.5 | 182 | 69.3 | 286 | 93.9 | 118 | 198 | 177 | 107 | 143 | 153 | 139 |

Another view of part of the listing above:
Structure (SMILES)	cleaved PARP positive nuclei fraction [1] [%]	cleaved PARP positive nuclei fraction [2] [%]	cleaved PARP positive nuclei fraction [3] [%]	cleaved PARP positive nuclei fraction [4] [%]	cleaved PARP positive nuclei fraction [5] [%]	cleaved PARP positive nuclei fraction [6] [%]	cleaved PARP positive nuclei fraction [7] [%]	cleaved PARP positive nuclei fraction [8] [%]	cleaved PARP positive nuclei fraction [9] [%]	cleaved PARP positive nuclei fraction [10] [%]	cleaved PARP positive nuclei fraction [11] [%]	cleaved PARP positive nuclei fraction [12] [%]	cleaved PARP positive nuclei fraction [13] [%]	cleaved PARP positive nuclei fraction [14] [%]	cleaved PARP positive nuclei fraction [15] [%]	cleaved PARP positive nuclei fraction [16] [%]
C=C(c1ccc(C(=O)O)cc1)c1cc2c(cc1C)C(C)(C)CCC2(C)C [Bexarotene] + CCCCCCCCCCCC1=C(O)C(=O)C=C(O)C1=O [Embelin] (first compound 2 µM, partner dose 1.2 µM)	79.9	83.8	32.4	70.7	272	97.9	141	169	178	74.1	47.7	216	96.1	87.1	86.1	204
Nc1ccn([C@@H]2O[C@H](CO)[C@@H](O)C2(F)F)c(=O)n1 [gemcitabine] + O=c1cc(-c2cccc3c2Sc2ccccc2S3)oc(N2CCOCC2)c1 [KU55933] (first compound 0.0004 µM, partner dose 1 µM)	179	135	35.5	132	81.6	159	168	202	101	51.6	39.5	30.1	221	134	130	36
